# Laboratory results from PubChem BioAssay AID624297 (National Center for Advancing Translational Sciences (NCATS), 2012).
# Out of some 340,000 compounds screened, about 6,200 (1.8%) were called active. Inconclusive results, whose numbers are uncertain, are shown with a selection of clear calls. Calls follow the shape of the dose curve; as a rule, active = well fitted activation curve with a large enough effect; inconclusive = small, poorly fitted or top-dose-only effect; inactive = no such curve, though single readings can be large or run the other way. Potencies beside an inconclusive call are fits to weak or partial responses and may not hold up.
# Assay: A quantitative high throughput screen for small molecules that induce DNA re-replication in SW480 colon adenocarcinoma cells. Also: nearly all actives have a fitted effect of over 55% in size.
# Conditions: Hoechst DNA content imaging, 48 h; series mostly up to 46.1 µM
# Method in brief: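 Treated cells incubate 48 hr (37 C, 5% CO2), are stained 40 min with Hoechst, and nuclear fluorescence is enumerated; a rise in nuclei with high DNA signal marks re-replication.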
# Potency is read from the fitted curve at half-maximal effect.
row,SMILES,Potency
1,COC(C/C=C/C(=O)COCc1ccccc1)OC,"inconclusive: 32.6 µM [activator, partial curve, poor fit]"
2,COc1ccccc1OCCC(=O)OCC(=O)c1[nH]c(C)c(C(C)=O)c1C,"inconclusive: 29.1 µM [activator, single point]"
3,CCN(CC)CC(C)(C)C(=O)/C=C/c1ccc(/C=C/C(=O)C(C)(C)CN(CC)CC)cc1,"inconclusive: 0.651 µM [activator, full curve, poor fit]"
4,COc1ccccc1NS(=O)(=O)c1cc(NC(=O)c2ccc(NC(C)=O)cc2)ccc1N1CCOCC1,inactive
5,Cc1ccc2c(c1)C1(SCCS1)C(=O)N2,"inconclusive: 20.6 µM [activator, single point]"
6,Cc1cc(N=Cc2c(O)n(-c3ccc4c(c3)OCO4)c(=O)c3ccccc23)ccn1,"inconclusive: 18.4 µM [activator, single point]"
7,CCCN1CCc2c(sc(NC(=O)CCS(=O)(=O)c3ccccc3)c2C(N)=O)C1,active: 18.4 µM
8,N#Cc1ccc(OCC(=O)NNC(=S)NC2CCCCC2)cc1,inactive
9,CC(C)=CCC/C(C)=C/Cc1c(O)ccc(C(=O)/C=C/c2ccc(O)cc2)c1O,"inconclusive: 18.4 µM [activator, single point]"
10,CSc1nnc(NC(=O)c2nc(S(=O)(=O)Cc3ccc(C)cc3)ncc2Cl)s1,"inconclusive: 1.03 µM [activator, partial curve, poor fit]"
11,COc1ccccc1N1CCN(C(=O)C2CCN(C(=O)c3ccccc3C)CC2)CC1,inactive
12,Oc1oc(-c2ccc(Br)cc2)nc1/C=N/c1ccccn1,"inconclusive: 11.6 µM [activator, partial curve, poor fit]"
13,CC(=O)c1sc(NC(=O)C2CC(=O)N(Cc3ccco3)C2)nc1-c1ccccc1 (configuration not stated),"inconclusive: 2.31 µM [activator, partial curve, poor fit]"
14,Cc1ccc(N2CC(C(=O)NCc3cccs3)CC2=O)cc1 (configuration not stated),"inconclusive: 6.51 µM [activator, partial curve, poor fit]"
15,CCC1CCc2sc(C(=O)NCc3ccccn3)cc2C1 (configuration not stated),"inconclusive: 25.9 µM [activator, single point]"
16,COc1ccc(C(=O)On2c(-c3ccc(Br)cc3)nc3ccccc3c2=O)cc1,"inconclusive: 13 µM [activator, partial curve]"
17,O=C(CSc1cc(Cl)ccc1Cl)NC1CCCc2ccccc21 (configuration not stated),"inconclusive: 32.6 µM [activator, partial curve, poor fit]"
18,O=C(Nc1cccnc1)c1cccc(S(=O)(=O)N2CCc3ccccc32)c1,inactive
19,COc1ccccc1/C=C1\SC(=S)N(CCC(=O)NNC(=O)c2ccccc2O)C1=O,"inconclusive: 20.6 µM [activator, single point]"
20,COc1ccc(C(=O)N2CCc3cc(OC)c(OC)cc3C2c2ccc(OC)c(OC)c2)cc1 (configuration not stated),"inconclusive: 16.4 µM [activator, single point]"
21,COC(=O)c1c(-c2ccc(F)cc2)noc1N,"inconclusive: 23.1 µM [activator, single point]"
22,CN1C(=O)C(CC(=O)NC2CCCCC2)SC1=Nc1ccccc1 (configuration not stated),"inconclusive: 23.1 µM [activator, single point]"
23,CCn1cc(/C=C/c2cc[n+](C)cc2)c2ccccc21,"inconclusive: 23.1 µM [activator, single point]"

row,SMILES,Potency
1,Cc1cc(C)cc(OCC(=O)N2CCc3ccccc3C2)c1,"inconclusive: 1.03 µM [activator, full curve, poor fit]"
2,CC1CCCCN1S(=O)(=O)c1ccc(C(=O)Nc2nnc(-c3ccco3)o2)cc1 (configuration not stated),"inconclusive: 29.1 µM [activator, partial curve, poor fit]"
3,O=C(N/N=C/c1c[nH]c2ccccc12)c1cc(Br)ccc1O,"inconclusive: 29.1 µM [activator, single point]"
4,CCc1ccc(-c2cc(C(=O)N/N=C/c3ccccn3)[nH]n2)cc1,inactive
5,COc1cccc(-n2cc(CNCc3c(C(=O)N(C)C)nc4ccc(Cl)cn34)cn2)c1,"inconclusive: 32.6 µM [activator, partial curve, poor fit]"
6,COCCNc1nc2nonc2nc1N(C)Cc1cccc2cnccc12,active: 4.61 µM
7,NS(=O)(=O)c1cccc(NC(=O)COC(=O)c2cc(-c3ccc(Cl)cc3)nc3ccccc23)c1,"inconclusive: 29.1 µM [activator, single point]"
8,O=C(NNC(=S)Nc1ccccc1)C1CCCCC1,"inconclusive: 0.164 µM [activator, full curve, poor fit]"
9,COc1ccccc1CN(CC(=O)NCc1ccco1)C(=O)CNS(=O)(=O)c1ccccc1,"inconclusive: 18.4 µM [activator, partial curve, poor fit]"
10,O=C1/C(=C/c2cccs2)CCC/C1=C\c1cccs1,"inconclusive: 23.1 µM [activator, partial curve, poor fit]"
11,COc1ccc(C(=O)c2sc(Nc3ccccc3)nc2N)cc1OC,"inconclusive: 18.4 µM [activator, single point]"
12,COC(=O)c1ccc2c(c1)C(=O)/C(=C/c1ccc(O)cc1)O2,"inconclusive: 32.6 µM [activator, partial curve, poor fit]"
13,COC(=O)c1ccc(NC(=S)NC(=O)c2cc(-c3ccccc3)nc3ccccc23)cc1,inactive
14,CN(C)S(=O)(=O)c1ccc(Cl)c(C(=O)Nc2cccc3ncccc23)c1,inactive
15,O=C(NC1CCCCC1)N1CCN(S(=O)(=O)c2ccc(F)cc2)CC1,inactive
16,CCCC12CN(C(=O)c3ccc([N+](=O)[O-])cc3)CC(C)(CN(C(=O)c3ccc([N+](=O)[O-])cc3)C1)C2=O,inactive
17,CN(CCOc1ccccc1)CC(=O)Nc1cccc(C#N)c1,"inconclusive: 3.26 µM [activator, single point]"
18,O=C(N/N=C/c1cccc(Oc2ccccc2)c1)c1cccc(Br)c1,"inconclusive: 18.4 µM [activator, partial curve, poor fit]"
19,CC(C)NC(=S)N/N=C/c1cc(Br)ccc1O,"inconclusive: 29.1 µM [activator, partial curve, poor fit]"
20,CNc1nnc(-c2cc3ccccc3oc2=O)s1,"inconclusive: 20.6 µM [activator, single point]"
21,COC(=O)c1cc(O)cc(OC)c1Oc1cc(C)cc(O)c1C(=O)O,"inconclusive: 29.1 µM [activator, single point]"
22,Cc1c(C)n(Cc2ccc(F)cc2)c2ccc(C(=O)NCCCN3CCOCC3)cc12,"inconclusive: 29.1 µM [activator, single point]"
23,CCN(C(=O)CSc1nnnn1C)c1c(N)n(Cc2ccccc2)c(=O)[nH]c1=O,"inconclusive: 0.146 µM [activator, full curve, poor fit]"

row,SMILES,Potency
1,COc1cccc(NC(=O)CC2SC(=Nc3ccccc3)NC2=O)c1 (configuration not stated),inactive
2,CC1CCCN(c2ccc3nc4ccccc4c(=O)n3n2)C1 (configuration not stated),inactive
3,COC(=O)c1c(-c2ccc(N(C)C)cc2)sc2ccc(OC)cc12,active: 14.6 µM
4,CCOC(=O)c1ccc(NC(=O)C(=O)NCCc2ccc(OC)cc2)cc1,"inconclusive: 29.1 µM [activator, single point]"
5,COc1ccc(-c2cc([C@H]3[C@@H]4C=CCC[C@@]4(C)C(=O)N3Cc3ccccc3)ccc2F)cc1OC,"inconclusive: 29.1 µM [activator, single point]"
6,O=C1N[C@@H](c2ccccc2)COC(=O)[C@@H](Cc2ccc(F)cc2)C/C=C\C[C@@H]1CC(=O)N(CCO)Cc1ccccc1,"inconclusive: 18.4 µM [activator, single point]"
7,COc1ccc(NC(=S)NC(=O)c2ccccc2)cn1,"inconclusive: 29.1 µM [activator, single point]"
8,CC(C)(C)c1nnc2sc(SCC(O)=C(C#N)c3nc4ccccc4[nH]3)nn2c1=O,inactive
9,CN(CC(=O)NCc1ccc(F)cc1)Cc1ccc(Br)cc1,"inconclusive: 20.6 µM [activator, single point]"
10,COCCn1ccc2c(OCC(=O)Nc3cc(OC)ccc3OC)cccc2c1=O,inactive
11,CCOC(=O)C(NC(=O)Nc1ccc(Cl)cn1)(Oc1ccc(F)cc1)C(F)(F)F (configuration not stated),"inconclusive: 3.66 µM [activator, partial curve, poor fit]"
12,CCOc1cc(C(=O)NC)cc(OCC)c1OCC,"inconclusive: 4.11 µM [activator, full curve]"
13,O=C(NCc1cccs1)c1cc2c(s1)CCCC2,inactive
14,COc1ccccc1NC(=O)c1cc([N+](=O)[O-])ccc1NCCN1C(=O)CCC1=O,inactive
15,O=C(C1=NNCC1c1ccccc1)C1CO1 (configuration not stated),active: 16.4 µM
16,CC(=O)Nc1ccc(NC(=O)CSc2nnc(C)c(=O)[nH]2)cc1,"inconclusive: 29.1 µM [activator, single point]"
17,O=c1[nH]cnc2scc(-c3cccs3)c12,inactive
18,COCCn1c(C)cc(/C=C2/SC(=O)N(CC(=O)N3CCCC3)C2=O)c1C,inactive
19,Cc1cc(NS(=O)(=O)c2ccc(NC(=S)NC(=O)c3ccccc3)cc2)no1,"inconclusive: 4.47 µM [activator, full curve, poor fit]"
20,CC1CCCCN1C(=O)CSc1nnc(-c2ccccc2O)o1 (configuration not stated),"inconclusive: 20.6 µM [activator, single point]"
21,O=C(c1ccccc1)C(Nc1cccc([N+](=O)[O-])c1)c1ccccc1 (configuration not stated),"inconclusive: 18.4 µM [activator, single point]"

# A section of the results above:
row,SMILES,Potency
8,CC(C)(C)c1nnc2sc(SCC(O)=C(C#N)c3nc4ccccc4[nH]3)nn2c1=O,inactive
9,CN(CC(=O)NCc1ccc(F)cc1)Cc1ccc(Br)cc1,"inconclusive: 20.6 µM [activator, single point]"
10,COCCn1ccc2c(OCC(=O)Nc3cc(OC)ccc3OC)cccc2c1=O,inactive
11,CCOC(=O)C(NC(=O)Nc1ccc(Cl)cn1)(Oc1ccc(F)cc1)C(F)(F)F (configuration not stated),"inconclusive: 3.66 µM [activator, partial curve, poor fit]"
12,CCOc1cc(C(=O)NC)cc(OCC)c1OCC,"inconclusive: 4.11 µM [activator, full curve]"
13,O=C(NCc1cccs1)c1cc2c(s1)CCCC2,inactive
14,COc1ccccc1NC(=O)c1cc([N+](=O)[O-])ccc1NCCN1C(=O)CCC1=O,inactive
15,O=C(C1=NNCC1c1ccccc1)C1CO1 (configuration not stated),active: 16.4 µM
16,CC(=O)Nc1ccc(NC(=O)CSc2nnc(C)c(=O)[nH]2)cc1,"inconclusive: 29.1 µM [activator, single point]"
17,O=c1[nH]cnc2scc(-c3cccs3)c12,inactive
18,COCCn1c(C)cc(/C=C2/SC(=O)N(CC(=O)N3CCCC3)C2=O)c1C,inactive
19,Cc1cc(NS(=O)(=O)c2ccc(NC(=S)NC(=O)c3ccccc3)cc2)no1,"inconclusive: 4.47 µM [activator, full curve, poor fit]"
20,CC1CCCCN1C(=O)CSc1nnc(-c2ccccc2O)o1 (configuration not stated),"inconclusive: 20.6 µM [activator, single point]"
21,O=C(c1ccccc1)C(Nc1cccc([N+](=O)[O-])c1)c1ccccc1 (configuration not stated),"inconclusive: 18.4 µM [activator, single point]"
